Measurements published in article PMC12811337.
Where two headings read alike, the source gives them in different places. These are yes or no findings as the source states them, for the method shown. Binding seen in cells or lysates may run through a third protein. A yes stands for co-enrichment or nearness to the bait. Other partners may have been found.

By UniProt entry, the sequences of proteins in these tests, tags left out.
UniProt G5EFM9: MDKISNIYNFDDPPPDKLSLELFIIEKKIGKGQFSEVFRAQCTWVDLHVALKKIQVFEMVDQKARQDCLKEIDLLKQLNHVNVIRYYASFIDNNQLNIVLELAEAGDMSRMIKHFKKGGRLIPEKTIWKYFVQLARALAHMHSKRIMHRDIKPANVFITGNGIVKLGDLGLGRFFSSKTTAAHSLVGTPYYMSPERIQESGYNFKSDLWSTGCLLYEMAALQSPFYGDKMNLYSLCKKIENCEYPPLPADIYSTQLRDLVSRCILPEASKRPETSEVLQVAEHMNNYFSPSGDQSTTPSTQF
UniProt G5EDY0: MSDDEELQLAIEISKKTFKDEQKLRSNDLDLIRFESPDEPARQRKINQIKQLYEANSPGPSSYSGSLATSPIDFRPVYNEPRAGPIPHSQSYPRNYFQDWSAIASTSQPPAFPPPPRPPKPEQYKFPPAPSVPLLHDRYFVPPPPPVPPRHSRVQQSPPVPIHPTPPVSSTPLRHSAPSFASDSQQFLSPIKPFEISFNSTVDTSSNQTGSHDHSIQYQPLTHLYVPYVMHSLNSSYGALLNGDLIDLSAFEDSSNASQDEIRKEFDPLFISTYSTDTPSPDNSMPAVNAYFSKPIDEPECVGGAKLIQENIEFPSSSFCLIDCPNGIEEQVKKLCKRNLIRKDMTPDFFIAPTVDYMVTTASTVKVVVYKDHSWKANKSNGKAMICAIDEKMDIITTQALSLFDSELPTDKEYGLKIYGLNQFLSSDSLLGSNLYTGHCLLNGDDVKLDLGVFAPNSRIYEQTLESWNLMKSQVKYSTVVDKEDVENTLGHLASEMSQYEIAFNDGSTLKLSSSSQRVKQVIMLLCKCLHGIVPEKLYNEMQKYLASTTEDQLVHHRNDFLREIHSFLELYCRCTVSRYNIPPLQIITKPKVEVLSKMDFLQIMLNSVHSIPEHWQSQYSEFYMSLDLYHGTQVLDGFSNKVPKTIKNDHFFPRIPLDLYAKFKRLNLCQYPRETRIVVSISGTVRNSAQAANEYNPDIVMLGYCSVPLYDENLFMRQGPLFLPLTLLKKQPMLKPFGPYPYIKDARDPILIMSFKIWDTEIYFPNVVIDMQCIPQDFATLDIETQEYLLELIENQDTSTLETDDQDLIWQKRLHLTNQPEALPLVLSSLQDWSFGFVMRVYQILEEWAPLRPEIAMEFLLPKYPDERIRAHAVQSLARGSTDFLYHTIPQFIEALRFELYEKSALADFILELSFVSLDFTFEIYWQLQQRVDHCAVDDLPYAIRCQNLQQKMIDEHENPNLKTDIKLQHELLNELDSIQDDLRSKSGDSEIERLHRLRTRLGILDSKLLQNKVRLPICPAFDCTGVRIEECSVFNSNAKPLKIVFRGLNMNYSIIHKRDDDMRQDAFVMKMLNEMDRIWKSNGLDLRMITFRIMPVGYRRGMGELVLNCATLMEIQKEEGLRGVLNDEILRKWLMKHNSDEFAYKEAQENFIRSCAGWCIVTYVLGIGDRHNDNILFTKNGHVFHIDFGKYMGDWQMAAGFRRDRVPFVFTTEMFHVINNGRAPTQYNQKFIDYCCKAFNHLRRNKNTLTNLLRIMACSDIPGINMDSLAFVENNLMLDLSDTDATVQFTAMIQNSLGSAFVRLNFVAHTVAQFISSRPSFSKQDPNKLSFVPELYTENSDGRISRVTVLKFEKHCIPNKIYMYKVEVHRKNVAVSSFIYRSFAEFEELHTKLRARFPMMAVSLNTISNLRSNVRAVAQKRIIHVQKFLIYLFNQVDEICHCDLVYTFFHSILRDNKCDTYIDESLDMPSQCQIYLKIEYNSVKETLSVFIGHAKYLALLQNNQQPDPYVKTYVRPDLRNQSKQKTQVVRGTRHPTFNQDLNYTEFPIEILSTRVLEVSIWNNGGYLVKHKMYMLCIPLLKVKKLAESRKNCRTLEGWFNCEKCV

T1: NEKL-2::TurboID (C. elegans) (UniProt O01775)
T1 sequence: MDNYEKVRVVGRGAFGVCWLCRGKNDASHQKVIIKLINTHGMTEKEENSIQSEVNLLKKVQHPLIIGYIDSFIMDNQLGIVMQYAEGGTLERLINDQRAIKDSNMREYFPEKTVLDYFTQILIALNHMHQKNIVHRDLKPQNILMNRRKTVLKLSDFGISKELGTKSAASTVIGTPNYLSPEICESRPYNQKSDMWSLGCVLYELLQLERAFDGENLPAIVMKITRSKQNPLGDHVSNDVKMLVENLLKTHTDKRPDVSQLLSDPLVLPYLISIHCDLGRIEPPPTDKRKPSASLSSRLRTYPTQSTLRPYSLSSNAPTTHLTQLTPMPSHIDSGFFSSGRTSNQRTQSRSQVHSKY

T2: TurboID::NEKL-2 (C. elegans) (UniProt O01775)
T2 sequence: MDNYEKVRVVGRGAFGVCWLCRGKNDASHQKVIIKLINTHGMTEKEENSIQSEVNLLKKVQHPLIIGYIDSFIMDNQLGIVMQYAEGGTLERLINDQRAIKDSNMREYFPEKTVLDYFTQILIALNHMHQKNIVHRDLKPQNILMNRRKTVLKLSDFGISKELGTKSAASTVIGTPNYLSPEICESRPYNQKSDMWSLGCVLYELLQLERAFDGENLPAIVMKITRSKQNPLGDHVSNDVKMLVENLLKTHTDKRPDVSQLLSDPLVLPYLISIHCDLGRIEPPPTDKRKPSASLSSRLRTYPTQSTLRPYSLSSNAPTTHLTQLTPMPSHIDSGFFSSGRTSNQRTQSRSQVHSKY


Tests used:
Experiment in all cases: proximity labelling; endogenously expressed bait–TurboID fusions label proximal proteins in vivo in mixed-stage C. elegans grown at 25 °C without added biotin; RIPA lysate, 1 h at room temperature on streptavidin beads, stringent washes, on-bead trypsin digestion, DIA LC-MS/MS; enrichment against N2 (no TurboID), Filter-1 and Filter-2 with the mNG::TurboID control; Exp 1–8 taken together (Exp 3 with depletion of His10-tagged carboxylases and AX7884 as control, Exp 5 DDA, Exp 7 with auxin for 2 h, Exp 8 with N-terminal fusions)
[1] = target: T1, NEKL-2::TurboID (C. elegans)
[2] = target: T2, TurboID::NEKL-2 (C. elegans)
[3] = target: T1, NEKL-2::TurboID (C. elegans); remark: listed apart in the source
[4] = target: NEKL-3::TurboID (C. elegans) (UniProt G5EFM9)
[5] = target: MLT-3::TurboID (C. elegans)

| Molecule | binding [1] | also measured |
| --- | --- | --- |
| EEA-1 (C. elegans) | binds | – |
| FCHO-1 (C. elegans) | binds | – |
| MLT-2::TurboID (from UniProt Q17583) | binds | binding [2]: binds |
| MLT-3::TurboID (C. elegans) | binds | – |
| MLT-4::TurboID (C. elegans) | binds | – |
| NEKL-3::TurboID (from UniProt G5EFM9 1-302) | binds | – |
| PIKI-1 (from UniProt G5EDY0 1-1607) | binds | – |
| TAT-1 (protein, UniProt Q9U280 1-1139) MPTEARDNNRHIHLGKVRDPHHQHAQRFCSNRISTCKYNGFSFLPRFLYEQFRRYNNIFFLAIALLQQIPDVSPTGRYTTAVPFLIILSVSALKEIFEDVKRRRSDNKVNAFSVEILVDGHWIEKQWKDVSVGDFIRIDNDSLFPADLLLLASSEQQGMAYIETSNLDGETNLKIKQALDITSTMTSPEKLSQFESEITCEPPSRHVNEFNGNIEINGVARHFGIDQLLLRGARLKNTAWIFGAVIYTGHDSKLLMNSKRAPLKSGTIDVQTNYRIIFLFFVLVALALISATGSEIWRGNNIPQAWYLSFLEHDPKGSFLWGVLTFFILYNNLIPISLQVTLEVVRFFQAIYINNDIEMYDVNSDSCAIARTSNLNEELGQVKFIMSDKTGTLTRNVMKFKRLSIGSRNYGNNEDDEFADASLIEDYRQGDEHSTSILEVLKMMAVCHTVVPENKDGQLIYQSSSPDEAALVRGAASQSVSFHTRQPQKVICNVFGEDETIEILDVIDFTSDRKRMSVIVRDGAGGDIKLYTKGADTVIFERLEHGKEQEEAVEYCTEHLEDYASFGYRTLCFSMRHLTEQEYSQWAPEYKKAILAIDNRAKLLADAAEKLERNMILVGATAIEDKLQEWVPETIQALMAADIRVWMLTGDKRETAINIAHSCALCHTNTELLIVDKTTYEETYQKLEQFVARAIELEKQEKGFAMVIDGKSLLHALTGEARKHFGDLALRCHAVVCCRMSPMQKAEVVEMVRKLAKHVVLAIGDGANDVAMIQAANVGVGISGEEGLQAASASDYAIPRFHFLRRLLLVHGAWNHDRSVKVILYSFYKNICLYIIELWFAMFSAWSGQTIFERWTIGMFNVIFTAWPPVVLGLFDHPVPAEQIMKYPALYASFQNRAFSIGNFSLWIGLAIVHSLSLFFLTYATMEHQVVWDNGLTGGWLMLGNCAYTFVVATVCFKALLECDSWTWPVVVACIGSIGLWIVFVIVYSLVFPHIGGIGADMAGMAAIMMSSYTFWLALLFIPLATLLWDLVIKSLFTIAMPTPRELAVMYNKRTTSFNGFERLASYSSNVLENMRLLTSSLRGSTTGSTRSRTASEASLALAEQTRYGFAFSQDESSAVAQTELIRNVDSTREKPTGR | – | binding [3]: binds |
| UNC-16 (protein, UniProt P34609 1-1190) MACNLSPVNEMADSITSSTPSEIVYGGPGSPDEHRTMSDKVQTMASAIYRELETMIKVHGEDGVKTLMPLVVNVLEALDLAYLERDEQTAELEMLKEDNEQLQTQYEREKALRKQTEQKYIEIEDTLIGQNKELDKKIESLESIMRMLELKAKNATDHASRLEEREVEQKLEFDRLHERYNTLLRTHVDHMERTKYLMGSEKFELMQNMPLPNMQLRNKMGMAASVDASSIRGVSDLISAHMTQSTTMDVNLANHITNEDWQDEFSSDIEPSPRDIPQSSADALTSPITTKEPTPKREAASPKQSEEEEADETTSVDPKENNDLLGADLTDDESDWNGLGLIPRRHRPNEMLDDDDTSDDGSLGMGREVENLIKENSELLDMKNALNIVKNDLINQVDELNSENMILRDENLSRQMVSEKMQEQITKHEEEIKTLKQKLMEKENEQEEDDVPMAMRKRFTRSEMQRVLMDRNAYKEKLMELEESIKWTEMQRAKKMQQQQQNVNQKKSGGIWEFFSSLLGDSVTPPASSRGNRASSSRGKMTRSVEYIDPDMISERRAAERREQYKLVREHVKKEDGRIEAYGWSLPNVEAEVSSVPIPVCCRPLLDNEPSLKIWCATGVVLRGGRDERGQWIVGDPIYFAPASMKKTKTSNHRPELEDEIKRARNLDARESELDEWQSSSLVWVVSSNQGKSLIAVLDANNPNNIIETFPACDSHLLCIQAVSGVMEGEPEMNEEQSKKYLSGGGKIKDLPEGLDGTDLGACEWVELRKMEDSEDGVPTYCSNDMKPSPKRTRDFSISEVAPVDSSAPVKEDPLPPPANRPGGRAALPPHIRDAMSKYDGVSGQMSGALPTVWMGGQNQYIYIHSAVTAWKQCLRRIKMPDAVLSIVHYKSRIFAALANGTIAIFHRNKHGEWSDEGYHSLRVGSATSSVRSLCLVSTNIWATYKNCVVVLDAESLQIVKVFAAHPRKDSQVRNMQWVGAGVWLSIRLDSTLRLYHAHTYEHLQDVDIEPYVTKMLGTSKLDFSYMRTTALLVSNRRLWIGTGTGVIISVPFSGQLEKKIETKDSKRPAGPGGLVRVYGATSENATNDEKTNDDFIPYCNLAHAQLSFHGHKDSVKFFLGVPGASKNGEDESAEVTLRRMLIMSGGDGYIDFRIGEENEPELTGQSIRPRDMSHLIIWEVDAELPILSK | – | binding [4]: binds |
| CDC-37 (protein, UniProt O02108 1-370) MPIDYSKWKDIEVSDDEDDTHPNIDTPSLFRWRHQARLERMAEKKMEQEKIDKEKGTTSKKMEELEKKLAAADVTDKSDIQKQIDEVKAQEEAWRKKEAELEEKERLEPWNVDTIGHEAFSTSRINKITEKKPQAPKTDEEDTHAMSTFFETHESLLEKMAVLKNGAKSTELFLAEHPHMASEYTANWLTIEALNAAIDFNEEKMKTMAEQCIIIQYLLELSKSLNAVATNTTVQKQFFKKFEAAEPVYMKHYQDEVKAFEDRLRTRAQTKRDAAMEEAEAEEKAERMKSAPGGIDPQEVFEQLPEEMRKCFEAHDIEALKGVAQKMDEEVFKYHFDRCIASGLWVPGKADDDDDDEEAAPAEEEPTTSS | – | binding [3]: binds |
| NEKL-2::TurboID (protein, UniProt O01775 1-357) MDNYEKVRVVGRGAFGVCWLCRGKNDASHQKVIIKLINTHGMTEKEENSIQSEVNLLKKVQHPLIIGYIDSFIMDNQLGIVMQYAEGGTLERLINDQRAIKDSNMREYFPEKTVLDYFTQILIALNHMHQKNIVHRDLKPQNILMNRRKTVLKLSDFGISKELGTKSAASTVIGTPNYLSPEICESRPYNQKSDMWSLGCVLYELLQLERAFDGENLPAIVMKITRSKQNPLGDHVSNDVKMLVENLLKTHTDKRPDVSQLLSDPLVLPYLISIHCDLGRIEPPPTDKRKPSASLSSRLRTYPTQSTLRPYSLSSNAPTTHLTQLTPMPSHIDSGFFSSGRTSNQRTQSRSQVHSKY | – | binding [5]: binds |
